Assay results taken from publication doi:10.1101/2023.02.06.526840.
These are yes or no findings as the source states them, for the method shown. Binding seen in cells or lysates may run through a third protein. Here binding means that the protein was enriched with, or labelled near, the bait; the list need not be complete.

Target: Kif21b (endogenous, E18.5 mouse cortex) (mouse (endogenous in E18.5 cortex))
Experiment: affinity purification with mass spectrometry

B1: Drebrin (Dbn1) (protein, UniProt Q9QXS6 1-706)
chain: MAGVSFSGHRLELLAAYEEVIREESAADWALYTYEDGSDDLKLAASGEGGLQELSGHFENQKVMYGFCSVKDSQAALPKYVLINWVGEDVPDARKCACASHVAKVAEFFQGVDVIVNASSVEDIDAGAIGQRLSNGLARLSSPVLHRLRLREDENAEPVGTTYQKTDAAVEMKRINREQFWEQAKKEEELRKEEERKKALDARLRFEQERMEQERQEQEERERRYREREQQIEEHRRKQQSLEAEEAKRRLKEQSIFGDQRDEEEESQMKKSESEVEEAAAIIAQRPDNPREFFRQQERVASASGGSCDAPAPAPFNHRPGRPYCPFIKASDSGPSSSSSSSSSPPRTPFPYITCHRTPNLSSSLPCSHLDSHRRMAPTPIPTRSPSDSSTASTPIAEQIERALDEVTSSQPPPPPPPPPPTQEAQETTPSLDEELSKEAKVTAAPEVWAGCAAEPPQAQEPPLLQSSPLEDSMCTESPEQAALAAPAEPAASVTSVADVHAADTIETTTATTDTTIANNVTPAAASLIDLWPGNGEEASTLQAEPRVPTPPSGAEASLAEVPLLNEAAQEPLPPVGEGCANLLNFDELPEPPATFCDPEEEVGETLAASQVLTMPSALEEVDQVLEQELEPEPHLLTNGETTQKEGTQASEGYFSQSQEEEFAQSEEPCAKVPPPVFYNKPPEIDITCWDADPVPEEEEGFEGGD
B1 was tested, and the binding was “binds”.
